Data source: PubChem BioAssay AID602196 (INSERM, 2012)

Assay: 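Knock-downs that protect lung cancer cells from cisplatin or sensitise them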
System: human A549 lung cancer cells
Reagent: siRNA pair against human genes
Duration: 48 h transfection before cisplatin; time from cisplatin to read-out not stated
Treatment: cisplatin at a dose killing half of control-siRNA cells; exact dose and duration not given
Measurement: 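Cisplatin cell death as a shift from the 50% death seen with control siRNA; siRNAs toxic or growth-blocking alone scored 0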
Reading the numbers: two-siRNA summed score (-2 to +2): higher = both siRNAs protect from cisplatin killing; -2 means both sensitise
Call rule: 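Each siRNA scores 0 if harmful alone by LDH or WST-1, otherwise +1 if it reduces and -1 if it increases cisplatin killing; a gene is active when both siRNAs agree (sum +2 or -2)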
Meaning of the calls: active = both siRNAs shift cisplatin killing the same way; inactive = no consistent shift, or siRNA harmful alone
Shown is an unselected part of about 23,000 reagents tested. 455 of them (2%) count as active. 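Active includes both protection and sensitisation; some change values fall well beyond the stated -50 to +50 range.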 Entries without a mark were called inactive. Further read-outs or replicates are left out here. No sequences are given here. Not given: the amount of reagent.

| gene symbol | two-siRNA summed score (-2 to +2) |
| --- | --- |
| BTK | 0 |
| B4GALNT4 | 1 |
| PDIA4 | 0 |
| LOC389936 | 1 |
| PRPF40A | 1 |
| SPHK1 | 1 |
| EBPL | 1 |
| MUL1 | 2 (active) |
| SPANXN5 | 1 |
| EGLN3 | 1 |
| PEDS1-UBE2V1 | 0 |
| CTPS2 | 0 |
| SNRPD2 | 0 |
| LOC401478 | 0 |
| MRPL28 | 0 |
| PRDM10-DT | 1 |
| SLAMF1 | 0 |
| TRPM8 | 1 |
| LOC441106 | 1 |
| B4GAT1 | 1 |
| AKR7L | 0 |
| LOC400212 | 1 |
| MUC1 | 1 |
| TGM6 | 0 |
| LOC441861 | 1 |
| CELSR1 | 2 (active) |
| FAM219A | 1 |
| ASB15 | 1 |
| MCMDC2 | 0 |
| LOC200383 | 0 |
| TRIR | 0 |
| DSG2 | 1 |
| GDPD3 | 0 |
| LOC440509 | 0 |
| NUMB | 0 |
| ACY3 | -1 |
| FRAT2 | -1 |
| DLX4 | 0 |
| DFFB | 1 |
| C4A | 0 |
| LOC342371 | 1 |
| CLINT1 | 1 |
| ITM2A | 0 |
| PRH1 | 0 |
| ERCC4 | 0 |
| OR10Q1 | 0 |
| LUZP1 | 0 |
| MMRN2 | 1 |
| TXNDC15 | 1 |
| NIBAN3 | 1 |
| FAM110B | 0 |
| SPEN | -1 |
| GTF2B | -1 |
| MCOLN2 | 1 |
| PDCD2 | 1 |
| FLJ46347 (retired record) | 0 |
| DLGAP2 | 0 |
